# Assay results: US8389766B2, “Insecticidal compounds” (Syngenta Crop Protection LLC, priority 2006, dated 2013)
# Some results were stated once for a whole list of compounds, not compound by compound.
# What was measured:
# Assay type in all cases: in vivo
# Spodoptera littoralis = Spodoptera littoralis (Egyptian cotton leafworm) cotton leaf disc spray test; conditions: 200 ppm sprayed on cotton leaf discs, 5 L1 larvae; mortality, feeding behaviour, growth regulation 3 DAT
# Heliothis virescens = Heliothis virescens (tobacco budworm) egg test on artificial diet; conditions: 200 ppm (concentration in well 18 ppm), eggs 0-24 h old on artificial diet; egg mortality, larval mortality, growth regulation after 4 days
# Diabrotica balteata = Diabrotica balteata (corn root worm) larvae test on artificial diet; conditions: 200 ppm (concentration in well 18 ppm), L2 larvae, larval mortality, growth regulation after 5 days
# Plutella xylostella = Plutella xylostella (diamond back moth) larvae test on artificial diet; conditions: 200 ppm (concentration in well 18 ppm), L2 larvae, larval mortality, growth regulation after 6 days
SMILES,control of Spodoptera littoralis (Spodoptera littoralis),control of Heliothis virescens (Heliothis virescens),control of Diabrotica balteata (Diabrotica balteata),control of Plutella xylostella (Plutella xylostella)
Cc1cc(C(F)(C(F)(F)F)C(F)(F)F)cc(C)c1NC(=O)c1ccc(C#N)c(NC(=O)c2ccco2)c1F [D10],at least 80%,at least 80%,–,–
Cc1cc(C(F)(C(F)(F)F)C(F)(F)F)cc(C)c1NC(=O)c1ccc(C#N)c(NC(=O)c2ccc(F)c(C(F)(F)F)c2)c1F [D12],at least 80%,–,at least 80%,at least 80%
Cc1cc(C(F)(C(F)(F)F)C(F)(F)F)cc(C)c1NC(=O)c1ccc(C#N)c(NC(=O)c2ccc(C(F)(F)F)cc2)c1F [D13],at least 80%,at least 80%,–,at least 80%
COC(=O)c1ccc(C(=O)Nc2c(C#N)ccc(C(=O)Nc3c(C)cc(C(F)(C(F)(F)F)C(F)(F)F)cc3C)c2F)cc1 [D20],–,at least 80%,–,–
Cc1cc(C(F)(C(F)(F)F)C(F)(F)F)cc(C)c1NC(=O)c1ccc(C#N)c(NC(=O)c2cc(C(F)(F)F)ccc2F)c1F [D21],at least 80%,at least 80%,–,at least 80%
CCc1cc(C(F)(C(F)(F)F)C(F)(F)F)cc(CC)c1NC(=O)c1ccc(C#N)c(NC(=O)c2ccc(N(C)C)cc2)c1F [D27],–,at least 80%,at least 80%,at least 80%
CCc1cc(C(F)(C(F)(F)F)C(F)(F)F)cc(CC)c1NC(=O)c1ccc(C#N)c(NC(=O)c2ccco2)c1F [D30],at least 80%,at least 80%,–,at least 80%
CCc1cc(C(F)(C(F)(F)F)C(F)(F)F)cc(CC)c1NC(=O)c1ccc(C#N)c(NC(=O)c2ccc(C(F)(F)F)cc2)c1F [D31],–,at least 80%,at least 80%,at least 80%
CCc1cc(C(F)(C(F)(F)F)C(F)(F)F)cc(CC)c1NC(=O)c1ccc(C#N)c(NC(=O)c2ccccc2C(F)(F)F)c1F [D35],–,at least 80%,–,–
CCc1cc(C(F)(C(F)(F)F)C(F)(F)F)cc(CC)c1NC(=O)c1ccc(C#N)c(NC(=O)c2ccc(C(=O)OC)cc2)c1F [D37],–,at least 80%,–,–
CCc1cc(C(F)(C(F)(F)F)C(F)(F)F)cc(CC)c1NC(=O)c1ccc(C#N)c(NC(=O)c2cc(C(F)(F)F)ccc2F)c1F [D38],–,at least 80%,at least 80%,at least 80%
COCc1cc(C(F)(C(F)(F)F)C(F)(F)F)cc(C)c1NC(=O)c1ccc(C#N)c(NC(=O)c2ccccc2Cl)c1F [D41],–,at least 80%,–,–
COCc1cc(C(F)(C(F)(F)F)C(F)(F)F)cc(C)c1NC(=O)c1ccc(C#N)c(NC(=O)c2ccc([N+](=O)[O-])cc2)c1F [D43],–,at least 80%,–,–
COCc1cc(C(F)(C(F)(F)F)C(F)(F)F)cc(C)c1NC(=O)c1ccc(C#N)c(NC(=O)c2cc(Cl)ccc2F)c1F [D45],–,at least 80%,at least 80%,–
COCc1cc(C(F)(C(F)(F)F)C(F)(F)F)cc(C)c1NC(=O)c1ccc(C#N)c(NC(=O)c2ccco2)c1F [D46],–,at least 80%,–,–
COCc1cc(C(F)(C(F)(F)F)C(F)(F)F)cc(C)c1NC(=O)c1ccc(C#N)c(NC(=O)c2ccc(OC(F)(F)F)cc2)c1F [D47],–,at least 80%,at least 80%,at least 80%
COCc1cc(C(F)(C(F)(F)F)C(F)(F)F)cc(C)c1NC(=O)c1ccc(C#N)c(NC(=O)c2ccc(F)c(C(F)(F)F)c2)c1F [D48],–,at least 80%,–,at least 80%
COCc1cc(C(F)(C(F)(F)F)C(F)(F)F)cc(C)c1NC(=O)c1ccc(C#N)c(NC(=O)c2ccc(C(F)(F)F)cc2)c1F [D49],–,at least 80%,at least 80%,at least 80%
COCc1cc(C(F)(C(F)(F)F)C(F)(F)F)cc(C)c1NC(=O)c1ccc(C#N)c(NC(=O)c2ccccc2OC(F)(F)F)c1F [D50],–,at least 80%,–,–
COCc1cc(C(F)(C(F)(F)F)C(F)(F)F)cc(C)c1NC(=O)c1ccc(C#N)c(NC(=O)c2cc(C(F)(F)F)ccc2F)c1F [D56],–,–,–,at least 80%
CCc1cc(C(F)(C(F)(F)F)C(F)(F)F)cc(CC)c1NC(=O)c1cccc(NC(=O)c2ccc(C#N)cc2)c1C#N [G3],at least 80%,–,–,–
